Columns and labels:
[1] = Breeding process: body weight and ingested amount of feed in rats on 20% lard food with 1% cholesterol; assay type: in vivo, rat; conditions: 0.1 mmol per kg feed, pair feeding four weeks; mean ± SD
Description: (§1) Twenty-four nine-week old male Wistar strain rats were used and divided into four groups each comprising six rats, including a control group, a 0.1 mmol/kg capsaicin group, a 0.1 mmol/kg capsinoid group, and a 1.0 mmol/kg capsinoid group. A 20% lard food to which 1% cholesterol was added was administered as a feed to the control group. For the remaining three groups, capsaicin of 0.1 mmol per kg final concentration of the feed, capsinoid of 0.1 mmol per kg final concentration of the feed, and capsinoid of 1.0 mmol per kg final concentration of the feed, respectively, were added to the feed, similar to the control group. The capsinoid was a mixture of 4-hydroxy-3-methoxybenzyl (E)-8-methyl-6-nonenoate and 4-hydroxy-3-methoxybenzyl 8-methylnonanoate in about 2:1 ratio.
(§2) The above groups each comprising six rats were subjected to pair feeding for four weeks. Breeding of the experimental animals was conducted in each individual cage and, during the breeding period, body weight was measured once a week and ingested amount of the feed was calculated by deducting the residue from the administered amount. Feces were collected for three days before dissection. After completion of breeding, the rats were sacrificed and dissected. Blood was collected. […] Furthermore, the ratio of the excised organs to the total body weight was calculated. […]

male Wistar strain rats = assay: Excretion of cholesterol into feces during three days before dissection; assay type: in vivo, rat; conditions: 0.1 mmol per kg feed, mean ± SD
Description: as §1, §2

COc1cc(CNC(=O)CCCC/C=C/C(C)C)ccc1O [Capsaicin, capsaicin]
Average Ingested Amount (g) of Feed [1]: 17.0 ± 1 g | Ingested Amount of Feed (male Wistar strain rats): 49.3 ± 3.1 g/3 days | Excreted Amount of Feces (male Wistar strain rats; * p<0.05): 3.3 ± 0.4 g/3 days

— patent publication US7414075B2, “Composition for lowering internal lipid content” (Ajinomoto Co., Inc., priority 2003, dated 2008)
